Assay results from patent US20130281409A1, “Myelin Sheath Fatty Acids that Resolve Neuroinflammation” (priority 2012, published 2013).
Some entries share one result that the patent states for a list of compounds. At least one structure is not confirmed: it was looked up by name or label, or the drawing left a doubt.

Tested on: CD3+ T cells (gated on CD4+ T cells)
Test: T-cell apoptosis, Annexin V and 7AAD staining
Type: cell-based, mouse
Settings: 30 μg/ml lipid, anti-CD3 and anti-CD28, 48 hours
Description: FIG. 5. […] (C) TUNEL staining of brain and spinal-cord tissue from mice immunized with PLP139-151 peptide (to induce EAE) and treated for 12 h with azPC, POPS, or vehicle on day 15 after immunization. […] (D) Quantification of TUNEL-positive infiltrating cells in brain and spinal cord shown in panel (C). Cells were stained according to standard protocols, run on a FACScan flow cytometer (BD Biosciences), and analysed with CellQuest software (BD Immunocytometry Systems). The antibody conjugate used was FITC anti-CD4, clone GK1.5 (BD Pharmingen). 7AAD staining was performed by using the Annexin V-PE Apoptosis Detection Kit I (BD Pharmingen). Cells were stained according to standard protocols, run on a FACScan flow cytometer (BD Biosciences), and analysed with CellQuest software (BD Immunocytometry Systems) or with FlowJo software version 6.3.2 (Tree Star, Inc.).

## CCCCCCCCCCCCCCCC(=O)OC[C@H](COP(=O)([O-])OCC[N+](C)(C)C)OC(=O)CCCC(=O)O [PGPC, 1-Palmitoyl-2-Glutaroyl-sn-Glycero-3-Phosphocholine]
  increase in T-cell apoptosis: 2-3 fold
